Laboratory results reported in the supplement of paper PMC6143611.
Counter-ions that a name gives are not always drawn. ± gives the uncertainty stated by the source. This is one part of the list. Plates or batches differ in their baseline, so values are only roughly comparable.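 A heat-shock-induced fluorescent stripe was set in larval rod outer segments at 6 dpf. Shedding distance ran from stripe to outer segment tip, measured by confocal stacks in about three fish per compound. Controls: 0.2% DMSO vehicle. Flagged compounds showed ≥20% change from same-week control, p < 0.001 (Dunnett test on mixed-effects models).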

Columns and labels:
[1] = test system: Danio rerio larva rod photoreceptor outer segment; assay: rod outer segment growth distance Dg, difference from same-week DMSO control mean; higher = more outer segment growth; conditions: 20 µM; treatment time: 4 days (6-10 dpf)
[2] = test system: Danio rerio larva rod photoreceptor outer segment; assay: rod outer segment shedding distance Ds, difference from same-week DMSO control mean; higher = less outer segment shedding; conditions: 20 µM; treatment time: 4 days (6-10 dpf)

Compound | rod outer segment growth distance Dg [1] | rod outer segment shedding distance Ds [2]
COc1ccc(-n2nc(C(N)=O)c3c2C(=O)N(c2ccc(N4CCCCC4=O)cc2)CC3)cc1 [Apixaban] | 0.07 ± 0.2 um | -0.08 ± 0.17 um
CCC[S+]([O-])c1ccc2[nH]c(NC(=O)OC)nc2c1 (stereo not drawn) [Albendazole Oxide] | -0.97 ± 0.18 um | -0.55 ± 0.27 um
Clc1ccc2nsnc2c1NC1=NCCN1 [Tizanidine HCl] | -1.05 ± 0.18 um | 0.01 ± 0.19 um
CCCCC1=NC2(CCCC2)C(=O)N1Cc1ccc(-c2ccccc2-c2nnn[nH]2)cc1 [Irbesartan] | -1.61 ± 0.23 um | 0.59 ± 0.17 um
CC(C(=O)O)c1ccc2c(c1)Cc1cccnc1O2 (stereo not drawn) [Pranoprofen] | 0.63 ± 0.22 um | -1.53 ± 0.32 um
C#Cc1cccc(Nc2ncnc3cc(OCCOC)c(OCCOC)cc23)c1 [Erlotinib HCl (OSI-744)] | 3.05 ± 0.2 um | -1.08 ± 0.23 um
O=P(O)(O)C(O)(Cn1ccnc1)P(=O)(O)O [Zoledronic Acid] | 0.57 ± 0.14 um | -0.9 ± 0.15 um
CN(C)c1ccc(-c2nc3ncc(Cl)c(N4CCN(CC(=O)Nc5nccs5)CC4)c3[nH]2)cc1 | -2.12 ± 0.18 um | 1.54 ± 0.16 um
N#CC1(c2ccc(NC(=O)c3cccnc3NCc3ccncc3)cc2)CCCC1 [Apatinib] | -0.48 ± 0.17 um | 0.44 ± 0.24 um
CCC(=O)NCC[C@@H]1CCc2ccc3c(c21)CCO3 [Ramelteon] | 0.89 ± 0.25 um | 0.48 ± 0.26 um
CNC(=O)c1ccc2cc([C@@]3(O)CCn4cncc43)ccc2c1 [TAK-700 (Orteronel)] | -0.17 ± 0.18 um | -1.88 ± 0.27 um
Nc1cccc2c1C(=O)N(C1CCC(=O)NC1=O)C2=O (stereo not drawn) [Pomalidomide] | -0.39 ± 0.16 um | -0.56 ± 0.18 um
NC(=O)c1cn(Cc2c(F)cccc2F)nn1 [Rufinamide] | -0.32 ± 0.23 um | -0.62 ± 0.2 um
Cc1[nH]c(=O)c(C#N)cc1-c1ccncc1 [Milrinone] | -0.06 ± 0.22 um | 0.29 ± 0.28 um
CC(=O)N1CCN(CCOc2ccc(C3CCN(C4=Nn5c(nnc5C(F)(F)F)CC4)CC3)cc2)CC1 | -1.12 ± 0.19 um | -0.2 ± 0.13 um
Nc1nnc(-c2cccc(Cl)c2Cl)c(N)n1 [Lamotrigine] | -0.25 ± 0.17 um | 0.46 ± 0.16 um
O=c1[nH]c(=O)n(C2CCCO2)cc1F (stereo not drawn) | 1.71 ± 0.17 um | 0.13 ± 0.17 um
CCCS(=O)(=O)Nc1ccc(F)c(C(=O)c2c[nH]c3ncc(Cl)cc23)c1F | -0.25 ± 0.3 um | -0.05 ± 0.21 um
O=C1CC(=O)c2c(Cl)c(Cl)c(Cl)c(Cl)c21 | -0.56 ± 0.23 um | -0.9 ± 0.34 um
CNC[C@H](O)c1ccc(O)c(O)c1 [Epinephrine HCl] | 1.04 ± 0.15 um | 0.23 ± 0.11 um
C[C@H](CCC(=O)O)[C@H]1CC[C@H]2[C@@H]3C[C@H](O)[C@@H]4C[C@H](O)CC[C@]4(C)[C@H]3CC[C@]12C [Hyodeoxycholic acid (HDCA)] | -0.29 ± 0.36 um | 0.33 ± 0.33 um
Cc1c(C(=O)N2CCOc3ccc(-c4ccc(N)nc4)cc3C2)ccc(S(C)(=O)=O)c1F | -0.08 ± 0.17 um | -0.31 ± 0.12 um
CC(C)N(CCCNC(=O)Nc1ccc(C(C)(C)C)cc1)C[C@H]1O[C@@H](n2ccc3c(N)ncnc32)[C@H](O)[C@@H]1O | -0.9 ± 0.18 um | 0 ± 0.13 um

Whole records from above.
CCC[S+]([O-])c1ccc2[nH]c(NC(=O)OC)nc2c1 (stereo not drawn) [Albendazole Oxide] reads rod outer segment growth distance Dg [1]: -0.97 ± 0.18 um; rod outer segment shedding distance Ds [2]: -0.55 ± 0.27 um
O=P(O)(O)C(O)(Cn1ccnc1)P(=O)(O)O [Zoledronic Acid] reads rod outer segment growth distance Dg [1]: 0.57 ± 0.14 um; rod outer segment shedding distance Ds [2]: -0.9 ± 0.15 um

Later entries.

Compound | rod outer segment growth distance Dg [1] | rod outer segment shedding distance Ds [2]
COCC[n+]1c2c(n(Cc3cnccn3)c1C)C(=O)c1ccccc1C2=O [YM155 (Sepantronium Bromide)] | -1.08 ± 0.17 um | -0.68 ± 0.23 um
CC(N)C12CC3CC(CC(C3)C1)C2 (stereo not drawn) [Rimantadine] | 0.69 ± 0.28 um | -0.1 ± 0.27 um
NS(=O)(=O)c1cc2c(cc1Cl)NC(C(Cl)Cl)NS2(=O)=O (stereo not drawn) [Trichlormethiazide] | 0.77 ± 0.2 um | -0.11 ± 0.21 um
CC(C)CC(=O)Nc1n[nH]c2c1CN(C(=O)C1CCN(C)CC1)C2(C)C | -0.01 ± 0.16 um | -0.53 ± 0.19 um
COc1cccc2cc(-c3nc([C@H]4CC[C@H](C(=O)O)CC4)n4ncnc(N)c34)[nH]c12 | -1.16 ± 0.2 um | -0.47 ± 0.11 um
CCCC1O[C@@H]2C[C@H]3[C@@H]4CCC5=CC(=O)C=C[C@]5(C)[C@H]4[C@@H](O)C[C@]3(C)[C@]2(C(=O)CO)O1 (stereo partly drawn) [Budesonide] | -0.75 ± 0.14 um | 0.36 ± 0.17 um
O=c1c(-c2ccc(O)cc2)coc2c([C@@H]3O[C@H](CO)[C@@H](O)[C@H](O)[C@H]3O)c(O)ccc12 [Puerarin] | -1.53 ± 1.5 um | -4.75 ± 1.5 um
C#Cc1cccc(Nc2ncnc3cc(OC)c(OCCCCCCC(=O)NO)cc23)c1 | -0.06 ± 0.21 um | -1.62 ± 0.27 um
C[C@@H]1C/C=C/C=C/C=C/C=C/[C@H](O[C@@H]2O[C@H](C)[C@@H](O)[C@H](N)[C@@H]2O)C[C@@H]2O[C@](O)(C[C@@H](O)C[C@H]3O[C@@H]3/C=C/C(=O)O1)C[C@H](O)[C@H]2C(=O)O [Natamycin] | -0.4 ± 0.22 um | 0.05 ± 0.21 um
CCc1c2c(nc3ccc(OC(=O)N4CCC(N5CCCCC5)CC4)cc13)-c1cc3c(c(=O)n1C2)COC(=O)[C@]3(O)CC [Irinotecan HCl Trihydrate] | -0.09 ± 0.24 um | -0.2 ± 0.3 um
Cc1nc(NC(=O)N2CCC[C@H]2C(N)=O)sc1-c1ccnc(C(C)(C)C(F)(F)F)c1 | -0.46 ± 0.2 um | -0.22 ± 0.14 um
CC(C)(C)NC(=O)[C@H]1CC[C@H]2[C@@H]3CC[C@H]4NC(=O)C=C[C@]4(C)[C@H]3CC[C@]12C [Finasteride] | -0.5 ± 0.21 um | -1.75 ± 0.25 um
O=C1[C@H](Cc2ccc(O)cc2)N2C(=O)CCN(C(=O)NCc3ccccc3)[C@H]2CN1Cc1cccc2ccccc12 | -0.62 ± 0.16 um | -0.78 ± 0.12 um
O=C(Nc1c[nH]nc1-c1nc2ccc(CN3CCOCC3)cc2[nH]1)NC1CC1 | -0.57 ± 0.18 um | -0.72 ± 0.2 um
CC(C)[N+]1(C)[C@@H]2CC[C@H]1C[C@@H](OC(=O)C(CO)c1ccccc1)C2 (stereo partly drawn) [Ipratropium Bromide] | 0.42 ± 0.17 um | 0.76 ± 0.18 um
CN1CCc2c(c3ccccc3n2Cc2ccc(C(=O)NO)cc2)C1 [Tubastatin A HCl] | -0.62 ± 0.18 um | -0.26 ± 0.11 um
OCc1ccccc1O[C@@H]1O[C@H](CO)[C@@H](O)[C@H](O)[C@H]1O [Salicin] | -0.65 ± 0.23 um | 1.1 ± 0.25 um
CC(=O)c1cc([N+](=O)[O-])c(Sc2ccc(F)cc2F)s1 | 0.41 ± 0.19 um | 0.99 ± 0.26 um
CC(C)(C)c1cnc(CSc2cnc(NC(=O)C3CCNCC3)s2)o1 | -1.21 ± 0.35 um | -0.54 ± 0.28 um
Cc1cccc(Nc2ccncc2S(=O)(=O)NC(=O)NC(C)C)c1 [Torsemide] | 0.44 ± 0.29 um | -0.48 ± 0.12 um
CC(C)c1cc(C(C)C)c(CC(=O)NS(=O)(=O)Oc2c(C(C)C)cccc2C(C)C)c(C(C)C)c1 [Avasimibe] | -1.13 ± 0.23 um | -0.69 ± 0.27 um
Nc1nccc2c1ncn2C1C=C(CO)C(O)C1O (stereo not drawn) [3-Deazaneplanocin A (DZNeP)] | -0.25 ± 0.19 um | 0.08 ± 0.28 um
COc1nc(N)nc2c1ncn2[C@@H]1O[C@H](CO)[C@@H](O)[C@@H]1O [Nelarabine] | 0.34 ± 0.2 um | -0.16 ± 0.23 um

Compound | rod outer segment growth distance Dg [1] | rod outer segment shedding distance Ds [2]
O=C(NCCCNc1nc(Nc2cccc(NC(=O)N3CCCC3)c2)ncc1I)c1cccs1 | -0.21 ± 0.25 um | -0.28 ± 0.31 um
CCOC(=O)[C@H](CCc1ccccc1)N[C@@H](C)C(=O)N1CCC[C@H]1C(=O)O [Enalapril Maleate] | -0.04 ± 0.25 um | -1.88 ± 0.36 um
CC(c1cc2ccccc2s1)N(O)C(N)=O (stereo not drawn) [Zileuton] | -1.13 ± 0.17 um | -0.38 ± 0.18 um
CCn1c(-c2nonc2N)nc2c(C#CC(C)(C)O)ncc(OC[C@H]3CCCNC3)c21 | -1.34 ± 0.2 um | 0.52 ± 0.22 um
NC(=O)Cc1cccc(C(=O)c2ccccc2)c1N [Nepafenac] | 0.18 ± 0.23 um | -0.13 ± 0.2 um
Cc1ccc([C@@H]2O[C@H](CO)[C@@H](O)[C@H](O)[C@H]2O)cc1Cc1ccc(-c2ccc(F)cc2)s1 [Canagliflozin] | 0.15 ± 0.12 um | 0.21 ± 0.12 um
COc1c(N2C[C@@H]3CCCN[C@@H]3C2)c(F)cc2c(=O)c(C(=O)O)cn(C3CC3)c12 [Moxifloxacin HCl] | 0.1 ± 0.15 um | -0.58 ± 0.15 um
CCN1CCN(C(=O)N[C@@H](C(=O)N[C@@H]2C(=O)N3C(C(=O)O)=C(CSc4nnnn4C)CS[C@H]23)c2ccc(O)cc2)C(=O)C1=O [Cefoperazone] | -0.21 ± 0.18 um | 0.3 ± 0.16 um
Cn1cc(-c2[nH]c3cc(NC(=O)[C@H](N)C4CCCCC4)cc4c3c2C=NNC4=O)cn1 | -0.77 ± 0.2 um | 0.01 ± 0.14 um
O=c1c(O)c(-c2ccc(O)cc2O)oc2cc(O)cc(O)c12 [Morin Hydrate] | -0.56 ± 0.32 um | 0.82 ± 0.28 um
Nc1nc(Nc2ccc(S(N)(=O)=O)cc2)nn1C(=O)c1c(F)cccc1F | -0.68 ± 0.21 um | 0.12 ± 0.26 um
CC(C)[C@H]1CC[C@H](C(=O)N[C@H](Cc2ccccc2)C(=O)O)CC1 [Nateglinide] | 0.69 ± 0.31 um | 0.12 ± 0.42 um
CCCC(=O)OCOC(=O)C1=C(C)NC(C)=C(C(=O)OC)C1c1cccc(Cl)c1Cl (stereo not drawn) [Clevidipine Butyrate] | -0.14 ± 0.23 um | -0.02 ± 0.31 um
COC(=O)C1=C(C)NC(C)=C(C(=O)OC)C1c1ccccc1[N+](=O)[O-] [Nifedipine] | 0.97 ± 0.25 um | -0.29 ± 0.16 um
Cc1ncc(-c2ccnc(Nc3ccc(S(C)(=O)=O)cc3)n2)n1C(C)C | -1.29 ± 0.19 um | 0.97 ± 0.11 um
CCC(=O)O[C@]1(C(=O)CCl)[C@@H](C)C[C@H]2[C@@H]3CCC4=CC(=O)C=C[C@]4(C)[C@@]3(F)[C@@H](O)C[C@@]21C [Clobetasol propionate] | -0.89 ± 0.29 um | 0.52 ± 0.16 um
Nc1nc(=O)n([C@@H]2CS[C@H](CO)O2)cc1F [Emtricitabine] | 0.25 ± 0.26 um | -0.28 ± 0.14 um
CC(C)[C@@H](C)/C=C/[C@@H](C)[C@H]1CC[C@H]2C3=CC=C4C[C@@H](O)CC[C@]4(C)[C@H]3CC[C@]12C [Ergosterol] | 0.34 ± 0.34 um | -0.06 ± 0.31 um
CCCCNc1cc(C(=O)O)cc(S(N)(=O)=O)c1Oc1ccccc1 [Bumetanide] | 1.05 ± 0.31 um | 0.49 ± 0.19 um
CC1(C)O[C@H]2CC(=O)OC[C@]23[C@H]2CC[C@@]4(C)[C@H](c5ccoc5)OC(=O)[C@H]5O[C@]54[C@]2(C)C(=O)C[C@@H]13 [Limonin] | 0.93 ± 0.31 um | 0.9 ± 0.31 um
CCCCCOC(=O)Nc1nc(=O)n([C@@H]2O[C@H](C)[C@@H](O)[C@H]2O)cc1F [Capecitabine] | -0.66 ± 0.29 um | -0.06 ± 0.2 um
O=c1[nH]cc(F)c(=O)[nH]1 [Fluorouracil (5-Fluoracil, 5-FU)] | -0.02 ± 0.22 um | -2.47 ± 0.31 um
O=C(O)Cc1ccccc1Nc1c(Cl)cccc1Cl [Diclofenac Sodium] | 0.19 ± 0.23 um | -0.22 ± 0.32 um
